Paper PMC5886308
Results are given in words; binding and its absence hold for the method and conditions named. Binding seen in cells or lysates may run through a third protein. Some results given as binding are weak or reduced against the parent protein; the word gives no strength. Values belong to the binder of their own block, whether it stands above or below them.

By UniProt entry, the sequences of proteins in these tests, tags left out. Residues count along the entry.
UniProt P62813, residues 28-455: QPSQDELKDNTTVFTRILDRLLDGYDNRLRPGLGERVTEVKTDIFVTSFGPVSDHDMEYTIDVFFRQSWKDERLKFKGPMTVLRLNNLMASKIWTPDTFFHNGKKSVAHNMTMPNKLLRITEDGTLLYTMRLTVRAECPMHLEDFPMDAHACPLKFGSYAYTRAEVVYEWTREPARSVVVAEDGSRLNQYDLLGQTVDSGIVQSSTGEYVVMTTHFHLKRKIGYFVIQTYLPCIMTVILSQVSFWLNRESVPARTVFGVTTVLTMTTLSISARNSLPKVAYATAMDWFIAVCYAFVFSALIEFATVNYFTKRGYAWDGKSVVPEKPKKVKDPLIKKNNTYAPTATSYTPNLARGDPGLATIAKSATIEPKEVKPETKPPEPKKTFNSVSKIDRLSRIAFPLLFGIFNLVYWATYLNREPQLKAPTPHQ

Experiments:
[1] = molecular target: GABAAR myc-alpha 1 subunit in combination with beta 2 and gamma 2 subunits (UniProt P62813); experiment: co-IP; HEK293T cells co-transfected; soluble extracts in modified RIPA buffer incubated overnight at 4°C with anti-myc (10 μg/ml), protein A agarose beads; non-immune IgG as control
[2] = molecular target: GABAAR myc-alpha 1 subunit (UniProt P62813); experiment: as above

binding [1]: binds
binding [2]: binds
B1: truncated PCDH19 (PCDH19Δ879) (domain or fragment, UniProt Q8TAB3 22-879)
chain: LINLKYSVEEEQRAGTVIANVAKDAREAGFALDPRQASAFRVVSNSAPHLVDINPSSGLLVTKQKIDRDLLCRQSPKCIISLEVMSSSMEICVIKVEIKDLNDNAPSFPAAQIELEISEAASPGTRIPLDSAYDPDSGSFGVQTYELTPNELFGLEIKTRGDGSRFAELVVEKSLDRETQSHYSFRITALDGGDPPRLGTVGLSIKVTDSNDNNPVFSESTYAVSVPENSPPNTPVIRLNASDPDEGTNGQVVYSFYGYVNDRTRELFQIDPHSGLVTVTGALDYEEGHVYELDVQAKDLGPNSIPAHCKVTVSVLDTNDNPPVINLLSVNSELVEVSESAPPGYVIALVRVSDRDSGLNGRVQCRLLGNVPFRLQEYESFSTILVDGRLDREQHDQYNLTIQARDGGVPMLQSAKSFTVLITDENDNHPHFSKPYYQVIVQENNTPGAYLLSVSARDPDLGLNGSVSYQIVPSQVRDMPVFTYVSINPNSGDIYALRSFNHEQTKAFEFKVLAKDGGLPSLQSNATVRVIILDVNDNTPVITAPPLINGTAEVYIPRNSGIGYLVTVVKAEDYDEGENGRVTYDMTEGDRGFFEIDQVNGEVRTTRTFGESSKSSYELIVVAHDHGKTSLSASALVLIYLSPALDAQESMGSVNLSLIFIIALGSIAGILFVTMIFVAIKCKRDNKEIRTYNCSNCLTITCLLGCFIKGQNSKCLHCISVSPISEEQDKKTEEKVSLRGKRIAEYSYGHQKKSSKKKKISKNDIRLVPRDVEETDKMNVVSCSSLTSSLNYFDYHQQTLPLGCRRSESTFLNVENQNTRNTSANHIYHHSFNSQGPQQPDLIINGVPLPETENYSFD

binding [1]: no binding
binding [2]: no binding
B2: delta protocadherin PCDH9 (protein, UniProt Q9HC56 24-1237)
chain: QELIYTIREELPENVPIGNIPKDLNISHINAATGTSASLVYRLVSKAGDAPLVKVSSSTGEIFTTSNRIDREKLCAGASYAEENECFFELEVVILPNDFFRLIKIKIIVKDTNDNAPMFPSPVINISIPENTLINSRFPIPSATDPDTGFNGVQHYELLNGQSVFGLDIVETPEGEKWPQLIVQQNLDREQKDTYVMKIKVEDGGTPQKSSTAILQVTVSDVNDNRPVFKEGQVEVHIPENAPVGTSVIQLHATDADIGSNAEIRYIFGAQVAPATKRLFALNNTTGLITVQRSLDREETAIHKVTVLASDGSSTPARATVTINVTDVNDNPPNIDLRYIISPINGTVYLSEKDPVNTKIALITVSDKDTDVNGKVICFIEREVPFHLKAVYDNQYLLETSSLLDYEGTKEFSFKIVASDSGKPSLNQTALVRVKLEDENDNPPIFNQPVIELSVSENNRRGLYLTTISATDEDSGKNADIVYQLGPNASFFDLDRKTGVLTASRVFDREEQERFIFTVTARDNGTPPLQSQAAVIVTVLDENDNSPKFTHNHFQFFVSENLPKYSTVGVITVTDADAGENKAVTLSILNDNDNFVLDPYSGVIKSNVSFDREQQSSYTFDVKATDGGQPPRSSTAKVTINVMDVNDNSPVVISPPSNTSFKLVPLSAIPGSVVAEVFAVDVDTGMNAELKYTIVSGNNKGLFRIDPVTGNITLEEKPAPTDVGLHRLVVNISDLGYPKSLHTLVLVFLYVNDTAGNASYIYDLIRRTMETPLDRNIGDSSQPYQNEDYLTIMIAIIAGAMVVIVVIFVTVLVRCRHASRFKAAQRSKQGAEWMSPNQENKQNKKKKRKKRKSPKSSLLNFVTIEESKPDDAVHEPINGTISLPAELEEQSIGRFDWGPAPPTTFKPNSPDLAKHYKSASPQPAFHLKPDTPVSVKKHHVIQELPLDNTFVGGCDTLSKRSSTSSDHFSASECSSQGGFKTKGPLHTRQCNSHSKSDNIPVTPQKCPSSTGFHIQENEESHYESQRRVTFHLPDGSQESCSDSGLGDHEPVGSGTLISHPLPLVQPQDEFYDQASPDKRTEADGNSDPNSDGPLGPRGLAEATEMCTQECLVLGHSDNCWMPPGLGPYQHPKSPLSTFAPQKEWVKKDKLVNGHTLTRAWKEDSNRNQFNDRKQYGSNEGHFNNGSHMTDIPLANLKSYKQAGGATESPKEHQL
